Data as given in US20260176701A1 (BRIGHAM AND WOMEN S HOSPITAL, published 2026).
No constants are given. Whether binding was seen depends on the method and setting. Some results given as binding are weak or reduced against the parent protein; the word gives no strength.

The chains behind the UniProt entries cited, without tags or fusion partners. Where a name states a change or a piece, a line headed by the entry shows the natural chain unless it says otherwise.
UniProt Q9UN81: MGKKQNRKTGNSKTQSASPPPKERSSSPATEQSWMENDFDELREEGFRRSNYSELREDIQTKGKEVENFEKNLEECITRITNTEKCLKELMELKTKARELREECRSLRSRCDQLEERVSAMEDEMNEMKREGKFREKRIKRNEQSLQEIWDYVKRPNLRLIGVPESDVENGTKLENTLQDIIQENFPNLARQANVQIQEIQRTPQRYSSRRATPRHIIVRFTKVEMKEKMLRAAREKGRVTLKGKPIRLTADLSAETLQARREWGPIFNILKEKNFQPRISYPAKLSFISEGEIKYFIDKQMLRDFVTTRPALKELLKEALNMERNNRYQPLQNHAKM

Columns and labels:
[1] = target: recombinant human ORF1p (LINE-1 open reading frame 1 protein, L1RP) (human) (UniProt Q9UN81); experiment: ELISA screen of conditioned medium, then modified Simoa with Nb-5 or 4H1 beads and ORF1p
[2] = target: recombinant human ORF1p (LINE-1 open reading frame 1 protein, L1RP) (human) (UniProt Q9UN81); experiment: Simoa sandwich, recombinant ORF1p at 40 pg/mL in diluent buffer, signal/background heat map; capture on the x axis, detector on the y axis
[3] = target: recombinant human ORF1p (LINE-1 open reading frame 1 protein, L1RP) (human) (UniProt Q9UN81); experiment: SPR, ORF1p immobilized
[4] = target: recombinant human ORF1p (LINE-1 open reading frame 1 protein, L1RP) (human) (UniProt Q9UN81); experiment: Simoa sandwich calibration curves, panels titled capture/detector; AEB against recombinant ORF1p (axis 0.001-1000 pg/mL, log-log); dotted line = limit of detection
[5] = target: recombinant human ORF1p (LINE-1 open reading frame 1 protein, L1RP) (human) (UniProt Q9UN81); experiment: large-volume (500 uL) MOSAIC sandwich calibration curve, 34H7 capture / Nb5-5LL detector; average molecules per bead against ORF1p concentration (log-log); dashed line = limit of detection
[6] = target: recombinant human ORF1p (LINE-1 open reading frame 1 protein, L1RP) (human) (UniProt Q9UN81); experiment: SPR; Simoa with lysine-biotinylated detector

Binder	binding [2]	binding [3]	further results
55A6 (antibody, V domains shown) VH: QSLEESGGDLVKPGASLTLTCTASGFSFINNNHICWVRQAPGKGLEWIACIYAGSNGYTYYTNWAKGRFTISKTSSTTVTLQMTSLTAADTATYFCARVPYAGYVNYGYAFFNLWGPGTLVTVSS VL: AAVVTQTPSPVSAPVGGTVTISCQSSQSVYRTNDLAWYQQKPGQPPKLLIYWASKLAIGVPSRFKGSGSGTQFTLTISGVQCDDAATYYCLGGYDDDGDLNTFGGGTEVVVN	binds	–	binding [1]: binds
anti-ORF1 Nb dimer 6 Nb5-Nb5 long linker (MT997) (bispecific antibody, Homodimeric tandem nanobody, long linker of 56 residues; also called Nb 5-5 long; Nb5-5LL) QVQLVESGGDLVQAGGSLRLSCAVSGGTSSNYGMGWFRQAPGKEREFVSSISWSGSRTLYSDSVKGRFTISRDNAKNTVDLQMNSLKPEDTAVYYCTAVREYRDYPQRDNFDYWGQGTQVTVSGGGGSGGGGSGGGGSGGGGSEAAAKEAAAKEAAAKSGGGGSGGGGSGGGGSGGGGSMAQVQLVESGGDLVQAGGSLRLSCAVSGGTSSNYGMGWFRQAPGKEREFVSSISWSGSRTLYSDSVKGRFTISRDNAKNTVDLQMNSLKPEDTAVYYCTAVREYRDYPQRDNFDYWGQGTQVTVSHHHHHH	binds	binds	binding [4]: binds; binding [5]: binds
anti-ORF1 Nb dimer 3 Nb5-Nb5 (MT993) (bispecific antibody, Homodimeric tandem nanobody, short linker; also called Nb 5-5; Nb5-5) QVQLVESGGDLVQAGGSLRLSCAVSGGTSSNYGMGWFRQAPGKEREFVSSISWSGSRTLYSDSVKGRFTISRDNAKNTVDLQMNSLKPEDTAVYYCTAVREYRDYPQRDNFDYWGQGTQVTVSGGGGSGGGGSGGGGSGGGGSMAQVQLVESGGDLVQAGGSLRLSCAVSGGTSSNYGMGWFRQAPGKEREFVSSISWSGSRTLYSDSVKGRFTISRDNAKNTVDLQMNSLKPEDTAVYYCTAVREYRDYPQRDNFDYWGQGTQVTVSHHHHHH	binds	binds	–
anti-ORF1 Nb dimer 2 Nb2-Nb2 (MT992) (VHH, Homodimeric tandem nanobody, short (GGGGS)x4 linker; also called Nb 2-2; Nb2-2 pMT992) DVQLVESGGGLVQAGGSLRLSCAASGRTDDIYTMGWFRQGPGKEREFVAVISWSITRRSSITHYADSVKGRFTISGENAENTVYLQMNTLKPEDTAVYYCAAKTGYSGSMSSYQDYDSWGQGTQVTVSGGGGSGGGGSGGGGSGGGGSMADVQLVESGGGLVQAGGSLRLSCAASGRTDDIYTMGWFRQGPGKEREFVAVISWSITRRSSITHYADSVKGRFTISGENAENTVYLQMNTLKPEDTAVYYCAAKTGYSGSMSSYQDYDSWGQGTQVTVSHHHHHH	–	binds	binding [6]: binds
anti-ORF1 Nb trimer Nb5-Nb5-Nb5 (MT996) (bispecific antibody, Homotrimeric tandem nanobody; also called Nb 5-5-5) QVQLVESGGDLVQAGGSLRLSCAVSGGTSSNYGMGWFRQAPGKEREFVSSISWSGSRTLYSDSVKGRFTISRDNAKNTVDLQMNSLKPEDTAVYYCTAVREYRDYPQRDNFDYWGQGTQVTVSGGGGSGGGGSGGGGSGGGGSMAQVQLVESGGDLVQAGGSLRLSCAVSGGTSSNYGMGWFRQAPGKEREFVSSISWSGSRTLYSDSVKGRFTISRDNAKNTVDLQMNSLKPEDTAVYYCTAVREYRDYPQRDNFDYWGQGTQVTVSGGGGSGGGGSGGGGSGGGGSMAQVQLVESGGDLVQAGGSLRLSCAVSGGTSSNYGMGWFRQAPGKEREFVSSISWSGSRTLYSDSVKGRFTISRDNAKNTVDLQMNSLKPEDTAVYYCTAVREYRDYPQRDNFDYWGQGTQVTVSHHHHHH	–	binds	–
anti-ORF1 Nb dimer 5 Nb5-Nb2 (MT995) (bispecific antibody, Heterodimeric tandem nanobody, short linker; also called Nb 5-2; Nb5-2 pMT995) QVQLVESGGDLVQAGGSLRLSCAVSGGTSSNYGMGWFRQAPGKEREFVSSISWSGSRTLYSDSVKGRFTISRDNAKNTVDLQMNSLKPEDTAVYYCTAVREYRDYPQRDNFDYWGQGTQVTVSGGGGSGGGGSGGGGSGGGGSMADVQLVESGGGLVQAGGSLRLSCAASGRTDDIYTMGWFRQGPGKEREFVAVISWSITRRSSITHYADSVKGRFTISGENAENTVYLQMNTLKPEDTAVYYCAAKTGYSGSMSSYQDYDSWGQGTQVTVSHHHHHH	–	binds	binding [6]: binds
anti-ORF1 Nb dimer 4 Nb5-Nb1 (MT994) (bispecific antibody, Heterodimeric tandem nanobody, short linker; also called Nb 5-1; Nb5-1 pMT994) QVQLVESGGDLVQAGGSLRLSCAVSGGTSSNYGMGWFRQAPGKEREFVSSISWSGSRTLYSDSVKGRFTISRDNAKNTVDLQMNSLKPEDTAVYYCTAVREYRDYPQRDNFDYWGQGTQVTVSGGGGSGGGGSGGGGSGGGGSMADVQLVESGGGLVQAGESLRLSCAASGRTLSSLNMAWFRQVPGKERDFVSLISRSGSTDYVHSVRGRFTISRDNAKNTVYLEMNSLKPEDTAVYYCAADDNYNGRYPFRDEYEYWGQGTQVTVSHHHHHH	–	binds	–
